The campaign covered roughly 220,000 compounds. About 2,400 (1.1%) were called active. Inconclusive means that the source gave no clear call. Such entries were picked first, then a sample of the others. The call rests on the fitted dose curve; in most records, active means well fitted inhibition curve with a large enough effect; inconclusive means small, poorly fitted or top-dose-only effect, or effect the other way; inactive means no such curve, though single readings can be large or run the other way. Potencies beside an inconclusive call are fits to weak or partial responses and may not hold up.
experiment: qHTS Multiplex Assay to Identify Dual Action Probes in a Cell Model of Huntington: Aggregate Formation (GFP); details: PC12 HttQ103-GFP aggregates, Acumen cytometry, 40 h; activity change, negative = inhibition: at 46.1 µM (top of the series) unless noted; further: nearly all actives have a fitted effect of over 60% in size
Method in brief: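 PC12/HTTQ103-GFP, ecdysone-inducible; teb 100 nM; cpd qHTS titration; GFP aggregates read on laser cytometer, Ex 488/Em 500-530 nm.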
On the % scale 0 is the no-effect control and ±100 the full control effect; potency means the concentration at half of the fitted maximal effect.

Which Potency does the source give for `Cc1nn(C)c(C)c1S(=O)(=O)N1CCCC(C(=O)N2CCN(c3ccc(Cl)cc3)CC2)C1` (stereo not drawn) here?
Its Potency is inconclusive: 3.16 µM [inhibitor, full curve].

With `Cc1nc(C(=O)NCCC(C)C)sc1C1(C)CC(c2ccccc2)=NO1` (stereo not drawn) as the compound, how does the Potency read?
The Potency was inconclusive: 1.26 µM [inhibitor, partial curve].

For `Cc1ccc(Sc2ncccc2C(=O)NC2CCCCCC2)cc1C`, which Potency is on record?
Its Potency is inconclusive: 0.562 µM [activator, full curve, poor fit].

With `Cc1ccc(OCCn2cc(C(=S)N3CCCC3)c3ccccc32)cc1C` as the compound, how does the Potency read?
The Potency was inconclusive: 10 µM [inhibitor, partial curve].

For `Cc1cccc(Nc2cc(=O)[nH]c(=O)[nH]2)c1`, which Potency is on record?
Its Potency is inconclusive: 35.5 µM [inhibitor, partial curve].

With `CCCCCC(=O)N(O)C1CC(=O)N(c2ccccc2)C1=O` (stereo not drawn) as the compound, how does the Potency read?
The Potency was inconclusive: 31.6 µM [inhibitor, single point].

Which Potency does the source give for `c1nc2sc3c(c2c2nnnn12)CCCC3` here?
The Potency was active: 10 µM.

With `Cc1ccc(-n2nnc3c(=O)n(Cc4cccc(C)c4)cnc32)cc1` as the compound, how does the Potency read?
Its Potency is inconclusive: 35.5 µM [inhibitor, single point].

With `Cc1ccccc1NC(=O)C(NC1CCCCC1)C(C)C` (stereo not drawn) as the compound, how does the activity change, negative = inhibition read?
Its activity change, negative = inhibition is inactive: -18.5% [at 9.22 µM].

For `CCOC(=O)c1c(NC(=S)Nc2ccccc2)sc(C)c1C`, which Potency is on record?
The Potency was “inactive”.

Which Potency does the source give for `CCOC(=O)c1c(NC(=O)CSc2nc3ccccc3c(=O)n2-c2ccccc2)sc(C(C)=O)c1C` here?
Its Potency is inconclusive: 2.51 µM [inhibitor, single point].

With `O=C1c2ccccc2C(=O)N1CCCCN(C(=O)c1cc2ccccc2oc1=O)c1ccc(Cl)cc1` as the compound, how does the Potency read?
The Potency was “inactive”.

For `Cc1cc2ccccc2n1CCNC(=O)C(C)C`, which Potency is on record?
Its Potency is inconclusive: 0.562 µM [activator, single point].

Which Potency does the source give for `Cc1nn(-c2ccccc2)c(N2CCCC2)c1/C=N/NC(=O)c1cccc(S(=O)(=O)Nc2ccc(Cl)cc2)c1` here?
The Potency was inconclusive: 5.62 µM [inhibitor, single point].

Which Potency does the source give for `CSc1ncccc1C(=O)Nc1nc2ccc(F)cc2s1` here?
Its Potency is inconclusive: 17.8 µM [inhibitor, single point].

With `Cc1cc(=O)n(-c2ccc(O)cc2)[nH]1` as the compound, how does the Potency read?
The Potency was inconclusive: 14.1 µM [inhibitor, single point].

Which Potency does the source give for `O=C(c1cccc(F)c1)N1CCC(c2nc3ccccc3s2)CC1` here?
The Potency was “inactive”.

With `O=C(c1ccccc1)[C@@H]1[C@@H]2C(=O)N(c3ccc(F)cc3)C(=O)[C@@H]2C2CCCN21` (stereo partly drawn) as the compound, how does the activity change, negative = inhibition read?
Its activity change, negative = inhibition is inactive: -0.943% [at 9.22 µM].

Which Potency does the source give for `CCOC(=S)SCC(=O)N1CCc2ccccc2C1C1C(=O)CC(C)(C)CC1=O` (stereo not drawn) here?
Its Potency is inconclusive: 12.6 µM [activator, single point].

Which Potency does the source give for `O=C(NNC(=S)NC1CCCCC1)c1cccc(S(=O)(=O)Nc2ccccc2Cl)c1` here?
Its Potency is inconclusive: 20 µM [inhibitor, single point].

With `Cc1ccc(CNC(=O)C2CCC(CNc3nc(=S)[nH]c4ccccc34)CC2)cc1` (stereo not drawn) as the compound, how does the Potency read?
Its Potency is “inactive”.

For `COc1ccc(NS(=O)(=O)c2ccc3oc(Nc4ccc5c(c4)OCCO5)nc3c2)cc1`, which Potency is on record?
The Potency was inconclusive: 35.5 µM [inhibitor, single point].

With `CCCCC(=O)Nc1ccc(NC(=O)c2ccc([N+](=O)[O-])cc2Cl)cc1OC` as the compound, how does the Potency read?
Its Potency is “inactive”.

Which Potency does the source give for `Cc1cc(C)c(C#N)c(SCCS(=O)(=O)c2ccc(C(C)(C)C)cc2)n1` here?
Its Potency is inconclusive: 3.98 µM [inhibitor, single point].

For `CCn1cc(Cl)c(C(=O)NNC(=O)CCn2cc([N+](=O)[O-])cn2)n1`, which Potency is on record?
The Potency was inconclusive: 0.501 µM [activator, partial curve, poor fit].

With `Cc1cccc(C(=O)N[C@H](C(=O)Nc2nccs2)C(C)C)c1` as the compound, how does the Potency read?
The Potency was inconclusive: 10 µM [activator, partial curve].

Which Potency does the source give for `CCCc1cc(C(=O)OC)c(NC(=O)c2cc(C)on2)s1` here?
The Potency was “inactive”.

Which Potency does the source give for `O=C(Nc1ccc(-c2nnc3n2CCCCC3)cc1)c1cc2ccccc2o1` here?
Its Potency is “inactive”.

For `CCN(CC)c1ccc(/C=N/n2c(C)cc(C)cc2=O)cc1`, which Potency is on record?
The Potency was “inactive”.

With `Cc1nn(-c2ccccc2)c(N2CCCC2)c1/C=N/NC(=O)c1cc(-c2cccs2)nc2ccccc12` as the compound, how does the Potency read?
The Potency was inconclusive: 25.1 µM [inhibitor, single point].

For `COc1cccc(/C=N/Nc2cc(-n3nc(C)cc3-c3ccccc3)ncn2)c1O`, which Potency is on record?
The Potency was inconclusive: 1.41 µM [inhibitor, full curve, poor fit].

Which Potency does the source give for `O=C1NN=C(c2ccc(Cl)cc2)CC1c1cccc(Cl)c1` (stereo not drawn) here?
Its Potency is inconclusive: 35.5 µM [inhibitor, single point].

Which Potency does the source give for `Cc1nc2nc(-c3ccccc3)cn2nc1C` here?
The Potency was “inactive”.

Which Potency does the source give for `Cc1ccc(S(=O)(=O)Nc2ccnc3ccccc23)cc1` here?
Its Potency is inconclusive: 22.4 µM [inhibitor, single point].

Which Potency does the source give for `O=C(Nc1ccc(-c2nc3cccnc3s2)cc1)c1ccco1` here?
The Potency was inconclusive: 12.6 µM [inhibitor, single point].

For `Cc1cccc(-n2c(-c3ccncc3)n[nH]c2=S)c1C`, which Potency is on record?
The Potency was inconclusive: 10 µM [activator, partial curve].

With `c1cc2c(cn1)cnc1cscc12` as the compound, how does the Potency read?
The Potency was inconclusive: 12.6 µM [inhibitor, partial curve].

With `Cc1nn(Cc2ccccc2)c2c1C(c1cccnc1)C(C#N)=C(N)O2` (stereo not drawn) as the compound, how does the Potency read?
The Potency was “inactive”.

With `CCOC(=O)C(C(C)=O)c1c(Br)c(O)c(O)c2c(C(=O)c3ccc(C)cc3)coc12` (stereo not drawn) as the compound, how does the Potency read?
The Potency was inconclusive: 25.1 µM [inhibitor, single point].

For `Cc1ccnc(NS(=O)(=O)c2ccc(NC(=O)c3c(-c4ccccc4Cl)noc3C)cc2)n1`, which Potency is on record?
Its Potency is inconclusive: 35.5 µM [inhibitor, single point].

For `C=CCn1c(=O)n(CCOC)c(=O)c2sc3ccccc3c21`, which Potency is on record?
Its Potency is active: 22.4 µM.

With `Cc1cc(C)c2c(N)c(C(=O)Nc3ncc(C)s3)sc2n1` as the compound, how does the Potency read?
Its Potency is “inactive”.

Which Potency does the source give for `Cc1nnc(SCC(=O)N2CCN(c3ccccc3)CC2)n1-c1ccccc1` here?
Its Potency is inconclusive: 22.4 µM [inhibitor, single point].

Which Potency does the source give for `O=C(CSc1ccc(Cl)cc1)N1CCN(c2ncc(C(F)(F)F)cc2Cl)CC1` here?
Its Potency is inconclusive: 35.5 µM [inhibitor, single point].

With `CC(C)(C)C(=O)Nc1ccc(C(=O)N/N=C/c2ccccc2OC(=O)c2ccc(Cl)cc2)cc1` as the compound, how does the Potency read?
Its Potency is inconclusive: 5.62 µM [inhibitor, single point].

For `Cc1c(Nc2cc(Cl)c3nonc3c2[N+](=O)[O-])c(=O)n(-c2ccccc2)n1C`, which Potency is on record?
The Potency was inconclusive: 3.98 µM [inhibitor, full curve].

Which Potency does the source give for `CC(C)c1nc(NCCO)c(C#N)c2c1CCCC2` here?
Its Potency is inconclusive: 5.62 µM [inhibitor, single point].

For `C/C(=N\NC(=S)NC(C)C)c1ccc(-n2ccnc2)cc1`, which Potency is on record?
Its Potency is inconclusive: 35.5 µM [activator, partial curve].

With `Cc1cc(C(=O)COc2ccc([N+](=O)[O-])cc2)c(C)n1C1CC1` as the compound, how does the activity change, negative = inhibition read?
The activity change, negative = inhibition was inactive: -6.63% [at 9.22 µM].

For `COc1cc(OC)c(N(C)S(=O)(=O)c2cccc(C(=O)NC(C)C3CC4CCC3C4)c2)cc1Cl` (stereo not drawn), which activity change, negative = inhibition is on record?
The activity change, negative = inhibition was inactive: -5.75% [at 9.22 µM].

Which Potency does the source give for `O=C1c2cccc3c([N+](=O)[O-])ccc(c23)C(=O)N1c1ccc(Cl)cn1` here?
The Potency was inconclusive: 35.5 µM [inhibitor, single point].

With `COc1ccc(-c2[nH]ncc2CNCCCSC)cc1F` as the compound, how does the Potency read?
The Potency was inconclusive: 3.55 µM [activator, single point].

For `CCOC(=O)Nc1ccc(C(=O)NCC2CCCO2)cc1` (stereo not drawn), which Potency is on record?
Its Potency is “inactive”.

For `COc1ccc(OCc2cccc(C(=O)Nc3ccc(CN4CCCCC4)cc3)c2)cc1`, which Potency is on record?
Its Potency is inconclusive: 12.6 µM [inhibitor, single point].

For `CCc1cc2c(NCc3ccco3)ncnc2s1`, which Potency is on record?
Its Potency is inconclusive: 11.2 µM [inhibitor, partial curve].

For `COCCNC(=O)C(c1cccs1)N(Cc1cccs1)C(=O)Cn1nnc2ccccc21` (stereo not drawn), which Potency is on record?
The Potency was inconclusive: 3.16 µM [inhibitor, single point].

Which Potency does the source give for `CCNc1nc(NCC)nc(N/N=C/c2ccc(Br)cc2)n1` here?
The Potency was inconclusive: 35.5 µM [inhibitor, single point].

Which Potency does the source give for `CCOC(=O)Nc1c(O)ccc2oc(C)c(-c3ccccc3)c12` here?
Its Potency is inconclusive: 7.94 µM [inhibitor, partial curve].

With `S=c1[nH]cnc2scc(-c3ccc(Br)cc3)c12` as the compound, how does the Potency read?
The Potency was inconclusive: 22.4 µM [inhibitor, single point].

For `O=C(CCC(=O)NC1CCCCCCC1)Nc1nnc(C(F)(F)F)s1`, which Potency is on record?
The Potency was inconclusive: 0.501 µM [activator, partial curve, poor fit].

With `COc1c(C(=O)Nc2ccc(Cc3ccncc3)cc2)ccc2ccccc12` as the compound, how does the Potency read?
Its Potency is active: 12.6 µM.

With `O=C(Nc1ccc(Cl)cc1F)C1CCN(S(=O)(=O)c2cccnc2)CC1` as the compound, how does the Potency read?
Its Potency is inconclusive: 11.2 µM [inhibitor, partial curve, poor fit].

For `Cc1cc(C)c(C#N)c(SCC(=O)N2CCN(Cc3ccccc3)CC2)n1`, which Potency is on record?
Its Potency is inconclusive: 35.5 µM [activator, single point].

For `c1ccc(Oc2cccc(OCCCCSc3ncccn3)c2)cc1`, which Potency is on record?
The Potency was inconclusive: 22.4 µM [inhibitor, single point].

For `Nc1ccc(Br)c2c1C(=O)c1ccccc1C2=O`, which Potency is on record?
The Potency was inconclusive: 14.1 µM [inhibitor, single point].

With `COc1ccc(CC(=O)NCc2ccc3c(c2)OCO3)cc1` as the compound, how does the Potency read?
The Potency was “inactive”.

Which Potency does the source give for `Fc1ccc(CSc2nc3ccccc3[nH]2)cc1` here?
The Potency was inconclusive: 15.8 µM [inhibitor, single point].

From PubChem BioAssay AID1688 (National Center for Advancing Translational Sciences (NCATS), 2009)
